The list shows a part of the results. This data set is noisy: repeats of one test often differ as much as different tests do.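 A first-round screen of about ten thousand compounds sought those raising reporter output, using human embryonic kidney cells briefly transfected with a plasmid carrying a Renilla luciferase gene driven by the HSV-TK promoter.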

This passage reports log results from the supplement of paper PMC7024190.

The test deals with HEK 293FT. Nature of the test: log relative Renilla luciferase luminescence (reporter expression vs reference, reference not stated) (log (base not stated)); higher = higher recombinant reporter expression. To be noted: 10 µM; time after transfection 48 h. The procedure: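 HEK 293FT cells transiently transfected with pRL-TK (Renilla luciferase) were treated with compounds at 10 uM and luminescence was read about 42 h later. Values are log relative Renilla luminescence (log base and reference not stated). Single-pass screen; 2080 natural products library.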
Consider `COC(=O)C(C)CCc1c[nH]c2ccccc12` (centres undefined) [Paniculidine A], for which the log was -0.181.

For `C[C@@H]1O[C@@H](OC[C@H]2O[C@@H](Oc3c(-c4ccc(O)cc4)oc4cc(O)cc(O)c4c3=O)[C@H](O)[C@@H](O)[C@@H]2O)[C@H](O)[C@H](O)[C@H]1O` [Nicotiflorin], the log was found to be 0.0364.

Turning to `O=C1c2c(O)cc(O)cc2O[C@H](c2ccc(O)cc2)[C@H]1O` [Aromadendrin], the log is 0.00461. To `COc1cc2c(cc1OC)[C@@H]1Cc3ccc(OC)c(OC)c3CN1CC2` [Tetrahydropalmatine] belongs -0.288.

With `O=c1c(O)c(-c2ccccc2)oc2cc(O)cc(O)c12` [Galangin], the log was -0.0982. The figure for `CC1(C)[C@H](O)CC[C@@]2(C)C3=C(CC[C@H]12)[C@H]1OC[C@H](O)[C@@]1(C)CC3` (single isomer, unassigned; ent-14) [ent-14,16-Epoxy-8-pimarene-3,15-diol] is -0.594; for `COc1c2c(cc3oc(CO)cc(=O)c13)O[C@H](C(C)(C)O)C2` [Cimifugin] it is 0.0634. Regarding `Cc1ccc2[nH]c3ccc(O)cc3c2c1` [Glycozolinine], the log was -0.462.

On to `CC(=O)Oc1ccc(-c2oc3cc(OC(C)=O)cc(OC(C)=O)c3c(=O)c2OC(C)=O)cc1` [Kaempferol tetraacetate], for which the log was -0.386. The figure for `COc1cc([C@@H]2OC[C@@H]3[C@H]2CO[C@H]3c2cc(OC)c(O[C@@H]3O[C@H](CO)[C@@H](O)[C@H](O)[C@H]3O)c(OC)c2)cc(OC)c1O` [Acanthoside B] is -0.321; for `COc1cc(OC)c2ccc(=O)oc2c1CC=C(C)C` [Coumurrayin] it is 0.158; for `C=C1CC[C@@H](O)[C@]2(C)CC[C@H]3C(=C)C(=O)O[C@@H]3[C@@H]12` [Reynosin] it is -0.632. For the compound `COc1cc(O)cc(CCc2ccccc2)c1` [Dihydropinosylvin methyl ether], the log is 0.0759.

Regarding `C=C(CC[C@@H]1OC1(C)C)[C@H]1CC[C@]2(C)[C@@H]1CC[C@@H]1[C@@]3(C)CCC(=O)C(C)(C)[C@@H]3CC[C@]12C` [24,25-Epoxy-dammar-20(21)-en-3-one], the log was -0.0428. For the compound `CCc1ncc(OC)c2c1[nH]c1c(O)cccc12` [Picrasidine J], the log was determined as 0.046. Turning to `C=CC(C)(C)c1c(O)cc(O)c2c(=O)c3c(CC=C(C)C)c(O)c(O)cc3oc12` [Cudratricusxanthone A], the log is -1.39. The figure for `CC1(C(=O)O)CCCC2(C)c3ccc(O)cc3CCC12` (centres undefined) [13-Hydroxy-8,11,13-podocarpatrien-18-oic acid] is -0.129; for `C=CC(C)(C)c1c(O)cc(O)c2c(=O)c3c4c(c(O)cc3oc12)OC(C)(C)C=C4` [Cudraxanthone B] it is -0.0544; for `C[C@@H]1O[C@@H](Oc2c(-c3ccc(O)c(O)c3)oc3cc(O)cc(O)c3c2=O)[C@H](O)[C@H](O)[C@H]1O` [Quercetin 3-O-alpha-L-rhamnoside] it is 0.0852. Regarding `O=c1cc(-c2ccccc2)oc2cc(O)cc(O)c12` [Chrysin], the log was -0.102. The figure for `COc1ccc(O)c(C(C)=O)c1` [2'-Hydroxy-5'-methoxyacetophenone] is -0.035. As to `CC(=O)Oc1cc(O)c2c(=O)cc(-c3ccccc3)oc2c1` [5-hydroxy-7-acetoxyflavone], the log was determined as 0.112. To `O=C(O)/C=C/c1ccccc1` [Cinnamic acid] belongs -0.157.

As to `CC(=O)O[C@H]1C[C@@]2(O)[C@@H](OC(C)=O)[C@@H]3[C@]4(OC(C)=O)CO[C@@H]4C[C@H](OC(C)=O)[C@@]3(C)[C@@H](OC(C)=O)[C@H](OC(C)=O)C(=C1C)C2(C)C` [Baccatin IV], the log is -0.0805.

For `CC(=O)Oc1ccc(-c2oc3cc(OC(C)=O)cc(O)c3c(=O)c2OC(C)=O)cc1` [Kaempferol 3,4',7-triacetate], the log is -0.205.

As to `COC(=O)C1=CO[C@@H](C)[C@H]2CN3CCc4c([nH]c5ccccc45)[C@@H]3C[C@H]12` [Ajmalicine], the log came to 0.0956.

With `COc1ccc(-c2cc(=O)c3c(O)c(OC)c(OC)cc3o2)cc1` [Salvigenin], the log came out at 0.198. In the case of `COC[C@H](Cc1ccc(OC)c(OC)c1)[C@H](COC)Cc1ccc(OC)c(OC)c1` [Phyllanthin], the log was -0.02.

On to `COc1c(OC(C)=O)cc2c(=O)oc3c(OC(C)=O)c(O[C@@H]4OC[C@@H](OC(C)=O)[C@H](OC(C)=O)[C@H]4OC(C)=O)cc4c(=O)oc1c2c34` [Ducheside A pentaacetate], for which the log came out at 0.121.

Consider `CO[C@H]1[C@H](O)[C@@H](O)[C@@H](O)[C@H](O)[C@@H]1O` [D-Pinitol], for which the log is -0.215. To `COc1c(OC(C)=O)cc(OC(C)=O)c2c(=O)cc(-c3ccccc3)oc12` [5,7-Diacetoxy-8-methoxyflavone] belongs 0.0322; to `CC1(C)CC[C@]2(C)CC[C@]3(C)[C@H]4CC=C5[C@@H](CC[C@H](O)C5(C)C)[C@]4(C)CC[C@@]3(C)[C@@H]2C1` [5-Glutinen-3-ol], -0.15.

In the case of `O[C@@H]1CC[C@@]2(O)CCO[C@H]2C1` [Cleroindicin E], the log was -0.0122.

For the compound `COC(=O)/C=C/c1c[nH]c2ccccc12` [Indole-3-acrylic acid methyl ester], the log was -0.193.

Take `COc1cc(-c2oc3cc(OC)c(OC)c(OC)c3c(=O)c2OC)cc(OC)c1OC` [3',4',5',3,5,6,7-Heptamethoxyflavone]: the log is 0.0076. As to `COC(=O)c1c(O)cccc1O[C@@H]1O[C@H](CO)[C@@H](O)[C@H](O)[C@H]1O` [6-(beta-D-glucopyranosyloxy)-Salicylic acid methyl ester], the log was -0.00447. The figure for `CCCCCCCCCCCCCCCCCCCCCCCC(=O)OCCCc1ccc(O)c(OC)c1` [3-(4-Hydroxy-3-methoxyphenyl)propyl tetracosanoate] is -0.0526; for `CC(C)(O)[C@H]1CC[C@@](C)([C@H]2CC[C@]3(C)[C@@H]2CC[C@@H]2[C@@]4(C)CCC(=O)C(C)(C)[C@@H]4CC[C@]23C)O1` [Ocotillone] it is -0.212; for `O=c1c2cc(O)ccc2nc2n1CC[C@@H]2O` [Vasicinolone] it is -0.217.
